Reference: PMC9282853
These are yes or no findings as the source states them, for the method shown. Binding seen in cells or lysates may run through a third protein. Binding calls can cover weak binding; strength is not graded here.

Chains of the proteins cited; added tags and fusions are not shown. Lines headed by an entry give the natural chain unless they say otherwise; changes in a name come on top.
UniProt Q8K070: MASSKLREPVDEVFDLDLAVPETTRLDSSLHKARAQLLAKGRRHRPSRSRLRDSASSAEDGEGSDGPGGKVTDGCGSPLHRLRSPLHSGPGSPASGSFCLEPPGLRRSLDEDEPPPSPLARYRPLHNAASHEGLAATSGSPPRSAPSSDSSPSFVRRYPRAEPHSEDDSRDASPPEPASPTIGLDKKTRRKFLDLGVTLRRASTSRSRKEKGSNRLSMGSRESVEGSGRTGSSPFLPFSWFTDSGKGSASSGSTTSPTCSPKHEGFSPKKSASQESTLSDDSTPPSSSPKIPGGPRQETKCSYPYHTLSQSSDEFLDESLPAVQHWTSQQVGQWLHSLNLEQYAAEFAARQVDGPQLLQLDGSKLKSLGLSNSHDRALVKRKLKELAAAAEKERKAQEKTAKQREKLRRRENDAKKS

Biological target: HA-tagged Samd14 lacking the SAM domain (mouse) (UniProt Q8K070)
Experiment: co-IP; anti-HA agarose beads on lysates (1% NP-40 lysis buffer) of GFP-sorted G1E-ΔEnh cells expressing HA-tagged Samd14 constructs or empty vector; Western blot for Capzβ, Capzα1, Capzα2

binding | Substance
binds | Capzβ (F-actin capping protein β subunit), endogenous in G1E cells (from UniProt P47757 1-277)
binds | Capzα2 (F-actin capping protein α2 subunit), endogenous in G1E cells (from UniProt P47754 1-286)
